# Measurements as given in the supplement of paper PMC8728848.
# This is one part of the list.
# Tests used:
# Experiment in all cases: glycan array binding signal (z-score within array); higher = stronger binding
# Details in all cases: glycan notation: IUPAC condensed, linker removed
# [1] = target: Neu5Ac(a2-3)Gal(b1-4)GlcNAc(b1-2)[Neu5Ac(a2-3)Gal(b1-4)GlcNAc(b1-4)]Man(a1-3)[GlcNAc(b1-4)][Neu5Ac(a2-3)Gal(b1-4)GlcNAc(b1-2)[Neu5Ac(a2-3)Gal(b1-4)GlcNAc(b1-6)]Man(a1-6)]Man(b1-4)GlcNAc(b1-4)GlcNAc
# How it was run: (§1)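 Columns mapping to the same glycan were averaged after glycan names were converted to IUPAC-condensed notation. The data come from 3228 arrays in the Consortium for Functional Glycomics database, limited to those with an available protein sequence. Binding is reported as a within-array Z-score averaged across arrays of one protein sequence and across linkers.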
# [2] = target: Neu5Ac(a2-3)Gal(b1-4)GlcNAc(b1-2)[Neu5Ac(a2-3)Gal(b1-4)GlcNAc(b1-4)]Man(a1-3)[GlcNAc(b1-4)][Neu5Ac(a2-3)Gal(b1-4)GlcNAc(b1-4)Man(a1-6)]Man(b1-4)GlcNAc(b1-4)GlcNAc
# How it was run: as §1
# [3] = target: Neu5Ac(a2-3)Gal(b1-4)GlcNAc(b1-2)[Neu5Ac(a2-3)Gal(b1-4)GlcNAc(b1-6)]Man(a1-6)[Neu5Ac(a2-3)Gal(b1-4)GlcNAc(b1-2)Man(a1-3)][GlcNAc(b1-4)]Man(b1-4)GlcNAc(b1-4)GlcNAc
# How it was run: as §1
# [4] = target: Neu5Ac(a2-3)Gal(b1-4)GlcNAc(b1-3)Gal
# How it was run: as §1
# [5] = target: Neu5Ac(a2-3)Gal(b1-4)GlcNAc(b1-3)Gal(b1-3)GlcNAc
# How it was run: as §1
# [6] = target: Neu5Ac(a2-3)Gal(b1-4)GlcNAc(b1-3)Gal(b1-4)GlcNAc
# How it was run: as §1
# [7] = target: Neu5Ac(a2-3)Gal(b1-4)GlcNAc(b1-3)Gal(b1-4)GlcNAc(b1-2)Man(a1-3)[Neu5Ac(a2-3)Gal(b1-4)GlcNAc(b1-3)Gal(b1-4)GlcNAc(b1-2)Man(a1-6)]Man(b1-4)GlcNAc(b1-4)GlcNAc
# How it was run: as §1
# [8] = target: Neu5Ac(a2-3)Gal(b1-4)GlcNAc(b1-3)Gal(b1-4)GlcNAc(b1-3)Gal(b1-4)GlcNAc
# How it was run: as §1
# [9] = target: Neu5Ac(a2-3)Gal(b1-4)GlcNAc(b1-3)Gal(b1-4)GlcNAc(b1-3)Gal(b1-4)GlcNAc(b1-2)Man(a1-3)[Neu5Ac(a2-3)Gal(b1-4)GlcNAc(b1-3)Gal(b1-4)GlcNAc(b1-3)Gal(b1-4)GlcNAc(b1-2)Man(a1-6)]GalNAc
# How it was run: as §1
# [10] = target: Neu5Ac(a2-3)Gal(b1-4)GlcNAc(b1-3)Gal(b1-4)GlcNAc(b1-3)GalNAc
# How it was run: as §1
# [11] = target: Neu5Ac(a2-3)Gal(b1-4)GlcNAc(b1-3)Gal(b1-4)GlcNAc(b1-3)[Neu5Ac(a2-3)Gal(b1-4)GlcNAc(b1-3)Gal(b1-4)GlcNAc(b1-6)]GalNAc
# How it was run: as §1
# [12] = target: Neu5Ac(a2-3)Gal(b1-4)GlcNAc(b1-3)Gal(b1-4)GlcNAc(b1-6)[Gal(b1-3)]GalNAc
# How it was run: as §1
# [13] = target: Neu5Ac(a2-3)Gal(b1-4)GlcNAc(b1-3)Gal(b1-4)[Fuc(a1-3)]GlcNAc
# How it was run: as §1
# [14] = target: Neu5Ac(a2-3)Gal(b1-4)GlcNAc(b1-3)GalNAc
# How it was run: as §1
# [15] = target: Neu5Ac(a2-3)Gal(b1-4)GlcNAc(b1-3)[Neu5Ac(a2-3)Gal(b1-4)GlcNAc(b1-6)]GalNAc
# How it was run: as §1
# [16] = target: Neu5Ac(a2-3)Gal(b1-4)GlcNAc(b1-6)GalNAc
# How it was run: as §1
# [17] = target: Neu5Ac(a2-3)Gal(b1-4)GlcNAc(b1-6)[Gal(b1-3)]GalNAc
# How it was run: as §1
# [18] = target: Neu5Ac(a2-3)Gal(b1-4)GlcNAc(b1-6)[Neu5Ac(a2-3)Gal(b1-3)]GalNAc
# How it was run: as §1
# [19] = target: Neu5Ac(a2-3)Gal(b1-4)GlcNAc6S
# How it was run: as §1
# [20] = target: Neu5Ac(a2-3)Gal(b1-4)[Fuc(a1-3)]GlcNAc
# How it was run: as §1
# [21] = target: Neu5Ac(a2-3)Gal(b1-4)[Fuc(a1-3)]GlcNAc(b1-2)Man
# How it was run: as §1
# [22] = target: Neu5Ac(a2-3)Gal(b1-4)[Fuc(a1-3)]GlcNAc(b1-3)Gal
# How it was run: as §1
# [23] = target: Neu5Ac(a2-3)Gal(b1-4)[Fuc(a1-3)]GlcNAc(b1-3)Gal(b1-4)GlcNAc
# How it was run: as §1
# [24] = target: Neu5Ac(a2-3)Gal(b1-4)[Fuc(a1-3)]GlcNAc(b1-3)Gal(b1-4)[Fuc(a1-3)]GlcNAc(b1-3)Gal(b1-4)[Fuc(a1-3)]GlcNAc
# How it was run: as §1
# [25] = target: Neu5Ac(a2-3)Gal(b1-4)[Fuc(a1-3)]GlcNAc(b1-3)GalNAc
# How it was run: as §1
# [26] = target: Neu5Ac(a2-3)Gal(b1-4)[Fuc(a1-3)]GlcNAc(b1-6)[Gal(b1-3)]GalNAc
# How it was run: as §1
# [27] = target: Neu5Ac(a2-3)Gal(b1-4)[Fuc(a1-3)]GlcNAc(b1-6)[Neu5Ac(a2-3)Gal(b1-3)]GalNAc
# How it was run: as §1
# [28] = target: Neu5Ac(a2-3)Gal(b1-4)[Fuc(a1-3)]GlcNAc6S
# How it was run: as §1
# [29] = target: Neu5Ac(a2-3)Gal6S(b1-4)GlcNAc
# How it was run: as §1
# [30] = target: Neu5Ac(a2-3)Gal6S(b1-4)[Fuc(a1-3)]GlcNAc
# How it was run: as §1
# Neu5Ac(a2-3)GalNAc = target: Neu5Ac(a2-3)GalNAc
# How it was run: as §1
# [31] = target: Neu5Ac(a2-3)GalNAc(b1-4)GlcNAc
# How it was run: as §1
# [32] = target: Neu5Ac(a2-3)[GalNAc(b1-4)]Gal(b1-4)Glc
# How it was run: as §1
# [33] = target: Neu5Ac(a2-3)[GalNAc(b1-4)]Gal(b1-4)GlcNAc
# How it was run: as §1
# [34] = target: Neu5Ac(a2-3)[GalNAc(b1-4)]Gal(b1-4)GlcNAc(b1-3)GalNAc
# How it was run: as §1
# [35] = target: Neu5Ac(a2-3)[Neu5Ac(a2-6)]GalNAc
# How it was run: as §1
# Neu5Ac(a2-6)Gal = target: Neu5Ac(a2-6)Gal
# How it was run: as §1
binder,measurement,setting,value
LF82 (Escherichia coli) (protein) ADWGPCRTASGDPFIFVTSFTKNIQNPTDNVTGQTYPDFYQWALGDKYSGVCECPSPNPTEARPTLYKTESTLAAGHNSTYFKITNNLEVSTRVYIANVGNVQVPFINKSNSQPGRECDQPTFGWTTGSKGQLSLYIAKPFVGEQNIPQTIIVSVFGTKKENVYSSVPISQVLLSGKVTVTQGCELAAGTSLDIDFGEYQAHDFKGRTGQPPQNVQKIQKELTFNCTNISDGVHIYLSLEGTPNAAYPSAISLGNADVGAVIEDGKGNILKPNDSNSLLEMNPGSLYEYVKRKVTTTITAYPVSTTGKLPAAGDYSGVATMHVELDGGGGGGGGGGATTDLGAKGTLKFSLKISQGHHHHHH,glycan array binding signal (z-score),[1],1.62
same,glycan array binding signal (z-score),[2],2.08
same,glycan array binding signal (z-score),[3],0.16
same,glycan array binding signal (z-score),[4],-0.212
same,glycan array binding signal (z-score),[5],-1.05
same,glycan array binding signal (z-score),[6],0.028
same,glycan array binding signal (z-score),[7],-0.541
same,glycan array binding signal (z-score),[8],-1.09
same,glycan array binding signal (z-score),[9],-0.239
same,glycan array binding signal (z-score),[10],0.079
same,glycan array binding signal (z-score),[11],1.1
same,glycan array binding signal (z-score),[12],-1.48
same,glycan array binding signal (z-score),[13],-0.125
same,glycan array binding signal (z-score),[14],0.002
same,glycan array binding signal (z-score),[15],-0.974
same,glycan array binding signal (z-score),[16],-0.235
same,glycan array binding signal (z-score),[17],-0.627
same,glycan array binding signal (z-score),[18],-0.112
same,glycan array binding signal (z-score),[19],-0.062
same,glycan array binding signal (z-score),[20],0.053
same,glycan array binding signal (z-score),[21],0.94
same,glycan array binding signal (z-score),[22],-0.536
same,glycan array binding signal (z-score),[23],0.281
same,glycan array binding signal (z-score),[24],0.12
same,glycan array binding signal (z-score),[25],0.56
same,glycan array binding signal (z-score),[26],0.33
same,glycan array binding signal (z-score),[27],-1.44
same,glycan array binding signal (z-score),[28],-0.095
same,glycan array binding signal (z-score),[29],-0.781
same,glycan array binding signal (z-score),[30],-1.07
same,glycan array binding signal (z-score),Neu5Ac(a2-3)GalNAc,-0.906
same,glycan array binding signal (z-score),[31],-1.36
same,glycan array binding signal (z-score),[32],-0.486
same,glycan array binding signal (z-score),[33],0.414
same,glycan array binding signal (z-score),[34],0.267
same,glycan array binding signal (z-score),[35],0.367
same,glycan array binding signal (z-score),Neu5Ac(a2-6)Gal,-0.439

# No new results follow: entries from further up.
binder,measurement,setting,value
LF82 (Escherichia coli) (protein) ADWGPCRTASGDPFIFVTSFTKNIQNPTDNVTGQTYPDFYQWALGDKYSGVCECPSPNPTEARPTLYKTESTLAAGHNSTYFKITNNLEVSTRVYIANVGNVQVPFINKSNSQPGRECDQPTFGWTTGSKGQLSLYIAKPFVGEQNIPQTIIVSVFGTKKENVYSSVPISQVLLSGKVTVTQGCELAAGTSLDIDFGEYQAHDFKGRTGQPPQNVQKIQKELTFNCTNISDGVHIYLSLEGTPNAAYPSAISLGNADVGAVIEDGKGNILKPNDSNSLLEMNPGSLYEYVKRKVTTTITAYPVSTTGKLPAAGDYSGVATMHVELDGGGGGGGGGGATTDLGAKGTLKFSLKISQGHHHHHH,glycan array binding signal (z-score),[5],-1.05
same,glycan array binding signal (z-score),[6],0.028
